pKi: −log10 of the molar value.
Target: Cholinesterase (Equus caballus, UniProt P81908)
Assay: Inhibition of Equus caballus (horse) serum butyrylcholinesterase (BChE) assessed as inhibition of BTCh hydrolysis by Ellman method

With `CN1C(=O)CN=C(c2ccccc2)c2cc(Cl)ccc21` [DIAZEPAM] as the compound, how does the pKi (read-out: Ki) read?
Its pKi is 7.37.

What about the Ki (read-out: pKi (converted)) of the same compound?
Its Ki is 5010 nM.
